Laboratory results reported in the supplement of paper PMC4604168 (melanoma cell lines).
This is one part of the list. Single values are uncertain, as repeats are few or missing.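 The apoptosis fraction was the count of cleaved-PARP antibody-stained nuclei relative to all DNA-stained nuclei, imaged in 1,536-well plates. Screening doses were set so most cells survived, and baseline and induced cleaved-PARP levels vary greatly across cell lines.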

system: WM1716; assay: cleaved PARP positive nuclei fraction relative to DMSO control; melanoma cells; higher = more apoptosis; conditions: library dose: low library concentration; 72 h

Row | Structure (SMILES) | cleaved PARP positive nuclei fraction [%]
1 | CO[C@H]1C[C@@H]2CC[C@@H](C)[C@@](O)(O2)C(=O)C(=O)N2CCCC[C@H]2C(=O)O[C@H]([C@H](C)C[C@@H]2CC[C@@H](OCCO)[C@H](OC)C2)CC(=O)[C@H](C)/C=C(\C)[C@@H](O)[C@@H](OC)C(=O)[C@H](C)C[C@H](C)/C=C/C=C/C=C/1C [everolimus] + c1cc(-c2cnn3cc(-c4ccc(OCCN5CCCCC5)cc4)cnc23)ccn1 [Dorsomorphin] (first compound 0.02 µM, partner dose 0.4 µM) | 33.9
2 | Cn1c(=O)n(-c2ccc(C(C)(C)C#N)cc2)c2c3cc(-c4cnc5ccccc5c4)ccc3ncc21 + CO[C@H]1C[C@@H]2CC[C@@H](C)[C@@](O)(O2)C(=O)C(=O)N2CCCC[C@H]2C(=O)O[C@H]([C@H](C)C[C@@H]2CC[C@@H](OCCO)[C@H](OC)C2)CC(=O)[C@H](C)/C=C(\C)[C@@H](O)[C@@H](OC)C(=O)[C@H](C)C[C@H](C)/C=C/C=C/C=C/1C [everolimus] (first compound 0.004 µM, partner dose 0.02 µM) | 177
3 | C[C@@H](Oc1cc(-c2cnn(C3CCNCC3)c2)cnc1N)c1c(Cl)ccc(F)c1Cl [Crizotinib] + CNC(=O)c1cc(Oc2ccc(NC(=O)Nc3ccc(Cl)c(C(F)(F)F)c3)cc2)ccn1 [sorafenib] (first compound 0.2 µM, partner dose 0.4 µM) | 29.6
4 | CO[C@H]1C[C@@H]2CC[C@@H](C)[C@@](O)(O2)C(=O)C(=O)N2CCCC[C@H]2C(=O)O[C@H]([C@H](C)C[C@@H]2CC[C@@H](OCCO)[C@H](OC)C2)CC(=O)[C@H](C)/C=C(\C)[C@@H](O)[C@@H](OC)C(=O)[C@H](C)C[C@H](C)/C=C/C=C/C=C/1C [everolimus] + O=C(Nc1cccc(Cl)c1)Nc1ncc(CCNc2ncnc3ccsc23)s1 [SNS314] (first compound 0.02 µM, partner dose 0.0008 µM) | 127
5 | CO[C@H]1C[C@@H]2CC[C@@H](C)[C@@](O)(O2)C(=O)C(=O)N2CCCC[C@H]2C(=O)O[C@H]([C@H](C)C[C@@H]2CC[C@@H](OCCO)[C@H](OC)C2)CC(=O)[C@H](C)/C=C(\C)[C@@H](O)[C@@H](OC)C(=O)[C@H](C)C[C@H](C)/C=C/C=C/C=C/1C [everolimus] + Oc1nc(-c2ccc(C(F)(F)F)cc2)nc2c1CSCC2 [XAV939] (first compound 0.02 µM, partner dose 2 µM) | 615
6 | CO[C@H]1C[C@@H]2CC[C@@H](C)[C@@](O)(O2)C(=O)C(=O)N2CCCC[C@H]2C(=O)O[C@H]([C@H](C)C[C@@H]2CC[C@@H](OCCO)[C@H](OC)C2)CC(=O)[C@H](C)/C=C(\C)[C@@H](O)[C@@H](OC)C(=O)[C@H](C)C[C@H](C)/C=C/C=C/C=C/1C [everolimus] + Cc1nc(Nc2ncc(C(=O)Nc3c(C)cccc3Cl)s2)cc(N2CCN(CCO)CC2)n1 [dasatanib] (first compound 0.02 µM, partner dose 0.004 µM) | 101
7 | CO[C@H]1C[C@@H]2CC[C@@H](C)[C@@](O)(O2)C(=O)C(=O)N2CCCC[C@H]2C(=O)O[C@H]([C@H](C)C[C@@H]2CC[C@@H](OCCO)[C@H](OC)C2)CC(=O)[C@H](C)/C=C(\C)[C@@H](O)[C@@H](OC)C(=O)[C@H](C)C[C@H](C)/C=C/C=C/C=C/1C [everolimus] + CC1(C)NC(=O)N(c2ccc([N+](=O)[O-])c(C(F)(F)F)c2)C1=O [nilutamide] (first compound 0.02 µM, partner dose 1 µM) | 212
8 | CO[C@H]1C[C@@H]2CC[C@@H](C)[C@@](O)(O2)C(=O)C(=O)N2CCCC[C@H]2C(=O)O[C@H]([C@H](C)C[C@@H]2CC[C@@H](OCCO)[C@H](OC)C2)CC(=O)[C@H](C)/C=C(\C)[C@@H](O)[C@@H](OC)C(=O)[C@H](C)C[C@H](C)/C=C/C=C/C=C/1C [everolimus] + Nc1cccc2c1CN(C1CCC(=O)NC1=O)C2=O [lenalidomide] (first compound 0.02 µM, partner dose 1 µM) | 59.4
9 | CO[C@H]1C[C@@H]2CC[C@@H](C)[C@@](O)(O2)C(=O)C(=O)N2CCCC[C@H]2C(=O)O[C@H]([C@H](C)C[C@@H]2CC[C@@H](OCCO)[C@H](OC)C2)CC(=O)[C@H](C)/C=C(\C)[C@@H](O)[C@@H](OC)C(=O)[C@H](C)C[C@H](C)/C=C/C=C/C=C/1C [everolimus] + Nc1nc(F)nc2c1ncn2[C@@H]1O[C@H](CO)[C@@H](O)[C@@H]1O [fludarabine] (first compound 0.02 µM, partner dose 0.2 µM) | 100
10 | CO[C@H]1C[C@@H]2CC[C@@H](C)[C@@](O)(O2)C(=O)C(=O)N2CCCC[C@H]2C(=O)O[C@H]([C@H](C)C[C@@H]2CC[C@@H](OCCO)[C@H](OC)C2)CC(=O)[C@H](C)/C=C(\C)[C@@H](O)[C@@H](OC)C(=O)[C@H](C)C[C@H](C)/C=C/C=C/C=C/1C [everolimus] + C=CCn1c(=O)c2cnc(Nc3ccc(N4CCN(C)CC4)cc3)nc2n1-c1cccc(C(C)(C)O)n1 [MK1775] (first compound 0.02 µM, partner dose 0.02 µM) | 153
11 | CO[C@H]1C[C@@H]2CC[C@@H](C)[C@@](O)(O2)C(=O)C(=O)N2CCCC[C@H]2C(=O)O[C@H]([C@H](C)C[C@@H]2CC[C@@H](OCCO)[C@H](OC)C2)CC(=O)[C@H](C)/C=C(\C)[C@@H](O)[C@@H](OC)C(=O)[C@H](C)C[C@H](C)/C=C/C=C/C=C/1C [everolimus] + Nc1ncn([C@H]2C[C@H](O)[C@@H](CO)O2)c(=O)n1 [decitabine] (first compound 0.02 µM, partner dose 0.1 µM) | 65.1
12 | CO[C@H]1C[C@@H]2CC[C@@H](C)[C@@](O)(O2)C(=O)C(=O)N2CCCC[C@H]2C(=O)O[C@H]([C@H](C)C[C@@H]2CC[C@@H](OCCO)[C@H](OC)C2)CC(=O)[C@H](C)/C=C(\C)[C@@H](O)[C@@H](OC)C(=O)[C@H](C)C[C@H](C)/C=C/C=C/C=C/1C [everolimus] + CC(C)(C)c1cnc(CSc2cnc(NC(=O)C3CCNCC3)s2)o1 [SNS-032] (first compound 0.02 µM, partner dose 0.01 µM) | 118
13 | CO[C@H]1C[C@@H]2CC[C@@H](C)[C@@](O)(O2)C(=O)C(=O)N2CCCC[C@H]2C(=O)O[C@H]([C@H](C)C[C@@H]2CC[C@@H](OCCO)[C@H](OC)C2)CC(=O)[C@H](C)/C=C(\C)[C@@H](O)[C@@H](OC)C(=O)[C@H](C)C[C@H](C)/C=C/C=C/C=C/1C [everolimus] + Cc1cc([N+](=O)[O-])ccc1NS(=O)(=O)c1cc(Cl)ccc1Cl [FH535] (first compound 0.02 µM, partner dose 1 µM) | 136
14 | CO[C@H]1C[C@@H]2CC[C@@H](C)[C@@](O)(O2)C(=O)C(=O)N2CCCC[C@H]2C(=O)O[C@H]([C@H](C)C[C@@H]2CC[C@@H](OCCO)[C@H](OC)C2)CC(=O)[C@H](C)/C=C(\C)[C@@H](O)[C@@H](OC)C(=O)[C@H](C)C[C@H](C)/C=C/C=C/C=C/1C [everolimus] + O=C(O)c1ccc(-c2c[nH]c3ncc(-c4ccccc4)cc23)cc1C1CCCC1 [GSK650394] (first compound 0.02 µM, partner dose 0.16 µM) | 45.6
15 | CO[C@H]1C[C@@H]2CC[C@@H](C)[C@@](O)(O2)C(=O)C(=O)N2CCCC[C@H]2C(=O)O[C@H]([C@H](C)C[C@@H]2CC[C@@H](OCCO)[C@H](OC)C2)CC(=O)[C@H](C)/C=C(\C)[C@@H](O)[C@@H](OC)C(=O)[C@H](C)C[C@H](C)/C=C/C=C/C=C/1C [everolimus] + COc1ccc(COc2ccc(Cc3cnc(N)nc3N)cc2OC)cc1 [GW2580] (first compound 0.02 µM, partner dose 1 µM) | 330
16 | CO[C@H]1C[C@@H]2CC[C@@H](C)[C@@](O)(O2)C(=O)C(=O)N2CCCC[C@H]2C(=O)O[C@H]([C@H](C)C[C@@H]2CC[C@@H](OCCO)[C@H](OC)C2)CC(=O)[C@H](C)/C=C(\C)[C@@H](O)[C@@H](OC)C(=O)[C@H](C)C[C@H](C)/C=C/C=C/C=C/1C [everolimus] + O=S(=O)(c1ccccc1)N(CC(F)(F)F)c1ccc(C(O)(C(F)(F)F)C(F)(F)F)cc1 [T0901317] (first compound 0.02 µM, partner dose 1.4 µM) | 73.1
17 | Cn1c(=O)n(-c2ccc(C(C)(C)C#N)cc2)c2c3cc(-c4cnc5ccccc5c4)ccc3ncc21 + CN1CCN(c2ccc3nc(-c4c(N)c5c(F)cccc5[nH]c4=O)[nH]c3c2)CC1 [Dovitinib] (first compound 0.004 µM, partner dose 0.1 µM) | 81.6
18 | CO[C@H]1C[C@@H]2CC[C@@H](C)[C@@](O)(O2)C(=O)C(=O)N2CCCC[C@H]2C(=O)O[C@H]([C@H](C)C[C@@H]2CC[C@@H](OCCO)[C@H](OC)C2)CC(=O)[C@H](C)/C=C(\C)[C@@H](O)[C@@H](OC)C(=O)[C@H](C)C[C@H](C)/C=C/C=C/C=C/1C [everolimus] + COc1cc(Nc2ncc(F)c(Nc3ccc4c(n3)NC(=O)C(C)(C)O4)n2)cc(OC)c1OC [Tamatinib] (first compound 0.02 µM, partner dose 0.4 µM) | 162

Quoted from the listing:
Value of CO[C@H]1C[C@@H]2CC[C@@H](C)[C@@](O)(O2)C(=O)C(=O)N2CCCC[C@H]2C(=O)O[C@H]([C@H](C)C[C@@H]2CC[C@@H](OCCO)[C@H](OC)C2)CC(=O)[C@H](C)/C=C(\C)[C@@H](O)[C@@H](OC)C(=O)[C@H](C)C[C@H](C)/C=C/C=C/C=C/1C [everolimus] + CC1(C)NC(=O)N(c2ccc([N+](=O)[O-])c(C(F)(F)F)c2)C1=O [nilutamide] (first compound 0.02 µM, partner dose 1 µM) under cleaved PARP positive nuclei fraction [%]: 212
Value of CO[C@H]1C[C@@H]2CC[C@@H](C)[C@@](O)(O2)C(=O)C(=O)N2CCCC[C@H]2C(=O)O[C@H]([C@H](C)C[C@@H]2CC[C@@H](OCCO)[C@H](OC)C2)CC(=O)[C@H](C)/C=C(\C)[C@@H](O)[C@@H](OC)C(=O)[C@H](C)C[C@H](C)/C=C/C=C/C=C/1C [everolimus] + COc1ccc(COc2ccc(Cc3cnc(N)nc3N)cc2OC)cc1 [GW2580] (first compound 0.02 µM, partner dose 1 µM) under cleaved PARP positive nuclei fraction [%]: 330
